# Results reported in PMC6023872.
# No constants are given. Whether binding was seen depends on the method and setting. Binding seen in cells or lysates may run through a third protein. Some entries that bind do so weakly or less than the wild type.
# Biological target: CENP-A (UniProt O35216)
# Test: FRET or BRET; single-molecule FRET by sptPALM in mouse ES cells (fixed and live), donor mEos3.2 on one protein, acceptor JF646 on the other (through HaloTag or SNAP tag); read out as decreased donor intensity and longer track length (on-state time); 500 ms exposures, 5 mM Trolox; 5-fold excess of HaloTag-tagged CENP-A for CENP-A/CENP-A
binder,measurement,value
"CENP-A (protein, UniProt O35216 1-134, JF646 HaloTag ligand on the HaloTag of the acceptor copy) MGPRRKPQTPRRRPSSPAPGPSRQSSSVGSQTLRRRQKFMWLKEIKTLQKSTDLLFRKKPFSMVVREICEKFSRGVDFWWQAQALLALQEAAEAFLIHLFEDAYLLSLHAGRVTLFPKDIQLTRRIRGFEGGLP",binding,binds
